Measured values as given in US10131659B2, “Iodonium analogs as inhibitors of NADPH oxidases and other flavin dehydrogenases; formulations thereof; and uses thereof” (priority 2014, dated 2018).
Some of these results come from one statement about several compounds together.

By UniProt entry, the sequences of proteins in these tests, tags left out. Residues count along the entry.
UniProt Q9NRD8, 26-1548: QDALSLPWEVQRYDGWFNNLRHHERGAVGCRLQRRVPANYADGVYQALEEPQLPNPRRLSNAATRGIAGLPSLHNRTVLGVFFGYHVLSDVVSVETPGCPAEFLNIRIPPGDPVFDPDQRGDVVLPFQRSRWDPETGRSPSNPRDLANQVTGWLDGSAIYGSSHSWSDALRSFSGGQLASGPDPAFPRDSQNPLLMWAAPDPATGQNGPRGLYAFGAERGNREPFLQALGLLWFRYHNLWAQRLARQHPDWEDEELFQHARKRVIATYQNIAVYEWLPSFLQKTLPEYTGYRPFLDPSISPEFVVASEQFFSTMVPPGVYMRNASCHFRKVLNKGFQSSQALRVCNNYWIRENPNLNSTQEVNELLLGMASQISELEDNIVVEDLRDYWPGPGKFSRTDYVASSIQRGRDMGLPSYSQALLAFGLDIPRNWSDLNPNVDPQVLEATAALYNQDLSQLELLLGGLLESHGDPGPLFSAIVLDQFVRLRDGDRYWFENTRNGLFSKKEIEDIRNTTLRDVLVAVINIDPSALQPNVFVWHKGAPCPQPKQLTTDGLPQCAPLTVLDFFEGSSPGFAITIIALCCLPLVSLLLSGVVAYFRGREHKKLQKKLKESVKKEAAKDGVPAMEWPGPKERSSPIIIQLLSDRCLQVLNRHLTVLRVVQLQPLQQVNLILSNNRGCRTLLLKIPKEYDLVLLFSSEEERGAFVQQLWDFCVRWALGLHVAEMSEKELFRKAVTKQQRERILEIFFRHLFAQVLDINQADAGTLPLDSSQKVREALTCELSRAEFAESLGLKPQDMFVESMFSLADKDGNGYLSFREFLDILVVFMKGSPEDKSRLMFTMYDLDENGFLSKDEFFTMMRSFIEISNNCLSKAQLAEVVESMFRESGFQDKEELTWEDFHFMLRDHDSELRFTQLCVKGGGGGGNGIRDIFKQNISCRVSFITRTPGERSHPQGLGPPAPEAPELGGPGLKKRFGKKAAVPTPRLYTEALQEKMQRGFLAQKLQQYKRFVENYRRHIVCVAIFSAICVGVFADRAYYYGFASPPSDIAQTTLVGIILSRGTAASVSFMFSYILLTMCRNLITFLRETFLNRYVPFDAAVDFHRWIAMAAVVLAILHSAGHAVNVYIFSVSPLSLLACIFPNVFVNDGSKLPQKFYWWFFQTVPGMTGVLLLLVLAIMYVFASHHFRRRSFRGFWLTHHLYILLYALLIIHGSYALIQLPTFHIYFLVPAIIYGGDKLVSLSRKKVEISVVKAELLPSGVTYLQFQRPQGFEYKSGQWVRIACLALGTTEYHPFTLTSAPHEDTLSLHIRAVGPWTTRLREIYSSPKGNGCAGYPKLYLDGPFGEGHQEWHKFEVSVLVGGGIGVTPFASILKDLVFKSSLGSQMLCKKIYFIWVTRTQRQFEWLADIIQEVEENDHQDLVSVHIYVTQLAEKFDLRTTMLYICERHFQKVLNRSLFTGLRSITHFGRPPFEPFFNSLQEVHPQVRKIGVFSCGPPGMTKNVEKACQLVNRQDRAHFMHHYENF

Legend:
DUOX2/A2 = DUOX2/A2 (Homo sapiens, UniProt Q9NRD8); experiment: DUOX2-dependent H2O2 production, Amplex Red assay in reconstituted HEK293 cells; format: cell-based
Procedure: H2O2 was measured by Amplex Red assay to determine NOX4 or Duox2 activity in fully reconstituted HEK293 cells. The method conducted was similar to the approach disclosed in Jaquet et al in Brit J. Pharmacology 164: 507-520, 2011 using somewhat different cell models for the NOX isoforms and we studied Duox2 in our own cell model.

NOX1 mRNA expression = experiment: NOX1 expression in HT-29 cells by quantitative RT-PCR; format: cell-based, human

SMILES	fold more active than the other compounds examined against Duox2 (DUOX2/A2) [fold]	inhibition of NOX1 mRNA expression (NOX1 mRNA expression; 250 nM for 48 hr) [%]	inhibition of NOX1 mRNA expression (NOX1 mRNA expression; 250 nM for 4 hr) [%]
O=[N+]([O-])c1ccc2c(c1)[I+]c1cc([N+](=O)[O-])ccc1-2.[Br-] [Compound 15, Dibenziodolium, 3,7-dinitro-, bromide]	> 10	≥ 60	–
Brc1ccc2c(c1)[I+]c1cc(Br)ccc1-2.[Br-] [Compound 16, Dibenziodolium, 3,7-dibromo-, bromide]	–	–	≥ 60
